Reference: PubChem BioAssay AID206 (DTP/NCI, 2004)
The list shows only some results of the screen, not a fair sample: it gathers tests that were run many times, whatever their T/C, doses with no T/C, and many T/C values between a quarter and a half above the control. Further doses and runs are listed elsewhere. T/C is the treated group as % of the vehicle group. Schedules are NCI's codes, read here as Q, the interval in days (D) or hours (H), X, the number of doses. Some T/C values carry the count of animals alive at the toxicity check (mostly the fifth day); without a count, all were alive then. Some values lie below zero, which means that the treated tumours became smaller. Some entries hold several experiments; the results are listed from low to high. Some doses have a count of surviving animals in place of a T/C: the source files T/C as zero there, which appears to mark a toxic dose or a test without result, not a measured value. Survivors were counted at the toxicity check, usually on the fifth day, unless a day is given; later deaths do not show.

Test system: nude mice, HT29 intrarenal xenograft, tumor weight T/C
Assay: NCI In Vivo Anticancer Drug Screen. Data for tumor model HT29;CX-1 Human Adenocarcinoma (MER+) (intrarenal inoculation) in NU/NU Swiss (nude) mice
Details: T/C endpoint: mean tumor weight change, higher T/C = larger tumour; for T/C: evaluated on day 15
Method in brief: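 Tumor-bearing mice received test compound or vehicle, and tumor size or survival was recorded. Values are the treated-group measurement divided by the vehicle-treated control measurement.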

[1] = dose: 300.0 mg/kg/injection, schedule: Q04DX004 (sc), vehicle: Klucel (hydroxypropylcellulose) (HPC)
[2] = dose: 600.0 mg/kg/injection, schedule: Q04DX004 (sc), vehicle: Klucel (hydroxypropylcellulose) (HPC)
[3] = dose: 1200.0 mg/kg/injection, schedule: Q04DX004 (sc), vehicle: suspension in saline
[4] = dose: 1200.0 mg/kg/injection, schedule: Q04DX004 (sc), vehicle: saline
[5] = dose: 400.0 mg/kg/injection, schedule: Q01DX010 (sc), vehicle: saline with Tween-80
[6] = dose: 0.5 mg/kg/injection, schedule: Q01DX010 (sc), vehicle: saline
[7] = dose: 1.0 mg/kg/injection, schedule: Q01DX010 (sc), vehicle: saline

Oc1c(Cl)cc(Cl)cc1C1N2CCCCC2C2c3cccn3-c3ccccc3N21 (stereo unspecified)
T/C (dose: 150.0 mg/kg/injection, schedule: Q04DX004 (sc), vehicle: Klucel (hydroxypropylcellulose) (HPC)): -17 [5 of 6 alive on day 15], 55, 78, 132 % of control
T/C [1]: 16, 70, 114, 154 % of control
T/C [2]: 26, 34 [5 of 6 alive on day 15], 69, 77 % of control

CCOC(=O)CNC(=O)CCCCSc1ncnc2nc[nH]c12
T/C (dose: 900.0 mg/kg/injection, schedule: Q04DX004 (sc), vehicle: saline with Tween-80): 147 % of control
survivor count (dose: 1800.0 mg/kg/injection, schedule: Q04DX004 (sc), vehicle: saline with Tween-80): 1 of 3 on day 15

COC1C(O)CC(OC2CC(OC3CC(O[C@@H]4C(=O)c5c(cc6cc(OC7CC(OC8CC(O)C(O)C(C)O8)C(O)C(C)O7)c(C)c(O)c6c5O)C[C@H]4[C@H](OC)C(=O)[C@@H](O)[C@@H](C)O)OC(C)C3O)OC(C)C2O)OC1C (stereo partly specified)
survivor count (dose: 6.0 mg/kg/injection, schedule: Q01DX010 (sc), vehicle: saline): 0 of 6 on day 20
survivor count (dose: 12.0 mg/kg/injection, schedule: Q01DX010 (sc), vehicle: saline): 0 of 6 on day 20
survivor count (dose: 24.0 mg/kg/injection, schedule: Q01DX010 (sc), vehicle: saline): 0 of 6 on day 20

CCCC(=O)OCc1cc(=O)n(C)c2c3c4c(cc12)c(C)cc(=O)n4CO3
survivor count (dose: 400.0 mg/kg/injection, schedule: Q01DX010 (sc), vehicle: Klucel (hydroxypropylcellulose) (HPC)): 3 of 5 on day 11
survivor count (dose: 800.0 mg/kg/injection, schedule: Q01DX010 (sc), vehicle: Klucel (hydroxypropylcellulose) (HPC)): 3 of 6 on day 11
survivor count (dose: 1600.0 mg/kg/injection, schedule: Q01DX010 (sc), vehicle: Klucel (hydroxypropylcellulose) (HPC)): 1 of 6 on day 11

CCCCn1cnc2c(=S)nc[nH]c21
survivor count [3]: 3 of 6 on day 15

CNC(=O)OCc1c(COC(=O)NC)c(-c2ccccc2)n(C)c1-c1ccccc1
T/C (dose: 100.0 mg/kg/injection, schedule: Q04DX004 (sc), vehicle: distilled water + Tween-80): 149 % of control [5 of 6 alive on day 15]

CC1=NN(c2cccc(S(=O)(=O)O)c2)C(=O)C1N=Nc1cc(Cl)cc(S(=O)(=O)O)c1O.CC1=NN(c2cccc(S(=O)(=O)O)c2)C(=O)C1N=Nc1cc(Cl)cc(S(=O)(=O)O)c1O.[Cr] (stereo unspecified)
survivor count [4]: 0 of 6 on day 15

CCN(CC)CCCC(C)Nc1c2ccc(Cl)cc2nc2ccc(OC)cc12 (stereo unspecified)
survivor count [5]: 0 of 3 on day 11

COC1=C(N)C(=O)c2nc(-c3nc(C(=O)O)c(C)c(-c4ccc(OC)c(OC)c4O)c3N)ccc2C1=O
survivor count [6]: 1 of 3 on day 11
survivor count [7]: 0 of 3 on day 11 and 2 of 6 on day 11
survivor count (dose: 2.0 mg/kg/injection, schedule: Q01DX010 (sc), vehicle: saline): 0 of 6 on day 11

CCN(C)N=Nc1ccc(C(N)=O)cc1
survivor count [1]: 1 of 6 on day 15
survivor count [2]: 0 of 6 on day 15

N[C@@H](Cc1ccc(N(CCCl)CCCl)cc1)C(=O)O
survivor count [7]: 1 of 2 on day 11
survivor count (dose: 4.0 mg/kg/injection, schedule: Q01DX010 (sc), vehicle: saline): 1 of 3 on day 11
survivor count (dose: 8.0 mg/kg/injection, schedule: Q01DX010 (sc), vehicle: saline): 0 of 2 on day 11, 0 of 3 on day 11, 1 of 3 on day 11

OC1(CSc2ccccc2)CCCCC1
T/C (dose: 200.0 mg/kg/injection, schedule: Q04DX004 (sc), vehicle: saline with Tween-80): 126 % of control
T/C (dose: 400.0 mg/kg/injection, schedule: Q04DX004 (sc), vehicle: saline with Tween-80): 136 % of control
T/C (dose: 800.0 mg/kg/injection, schedule: Q04DX004 (sc), vehicle: saline with Tween-80): 135 % of control

c1ccc([C@H]2CN3CCSC3=N2)cc1
T/C (dose: 60.0 mg/kg/injection, schedule: Q04DX004 (sc), vehicle: saline): 134 % of control [5 of 6 alive on day 15]
survivor count (dose: 120.0 mg/kg/injection, schedule: Q04DX004 (sc), vehicle: saline): 0 of 6 on day 15

NC1=NC(=O)N2CC12 (stereo unspecified)
survivor count (dose: 400.0 mg/kg/injection, schedule: Q04DX004 (sc), vehicle: saline): 0 of 6 on day 15

COC1/C=C/O[C@@]2(C)Oc3c(C)c(O)c4c(O)c(cc(O)c4c3C2=O)NC(=O)/C(C)=C\C=C\[C@H](C)C(O)[C@@H](C)[C@@H](O)[C@@H](C)[C@H](OC(C)=O)[C@@H]1C (stereo partly specified)
T/C (dose: 600.0 mg/kg/injection, schedule: Q04DX004 (sc), vehicle: suspension in saline): 140 % of control
T/C [3]: 135 % of control

CC[C@]1(O)C[C@H]2CN(CCc3c([nH]c4ccccc34)[C@@](C(=O)OC)(c3cc4c(cc3OC)N(C=O)[C@H]3[C@@](O)(C(=O)OC)[C@H](OC(C)=O)[C@]5(CC)C=CCN6CC[C@]43[C@@H]65)C2)C1
survivor count [6]: 1 of 3 on day 11
survivor count [7]: 1 of 3 on day 11

Cc1cc(NCCCCCCNc2cc(C)nc3cc(N(C)C)ccc23)c2ccc(N(C)C)cc2n1
survivor count (dose: 150.0 mg/kg/injection, schedule: Q04DX004 (sc), vehicle: distilled water + Tween-80 + alcohol): 3 of 6 on day 15
survivor count (dose: 300.0 mg/kg/injection, schedule: Q04DX004 (sc), vehicle: distilled water + Tween-80 + alcohol): 2 of 6 on day 15

Cc1ccc(S(=O)(=O)NC(=O)C2C(=O)CC3(CCCCC3)CC2=O)cc1
T/C (dose: 1200.0 mg/kg/injection, schedule: Q04DX004 (sc), vehicle: Klucel (hydroxypropylcellulose) (HPC)): 149 % of control

OCC1OC(n2cnc3c(=S)nc[nH]c32)C(O)C1O (stereo unspecified)
survivor count (dose: 200.0 mg/kg/injection, schedule: Q01DX010 (sc), vehicle: saline): 0 of 3 on day 20

O=CC(=O)c1ccc(O)cc1
survivor count [4]: 0 of 6 on day 15

NC(Cc1ccc(N(CCCl)CCCl)cc1)C(=O)O (stereo unspecified)
survivor count (dose: 20.0 mg/kg/injection, schedule: Q04DX004 (sc), vehicle: Klucel (hydroxypropylcellulose) (HPC)): 3 of 6 on day 15
survivor count (dose: 40.0 mg/kg/injection, schedule: Q04DX004 (sc), vehicle: Klucel (hydroxypropylcellulose) (HPC)): 0 of 6 on day 15 and 1 of 6 on day 15
survivor count (dose: 80.0 mg/kg/injection, schedule: Q04DX004 (sc), vehicle: Klucel (hydroxypropylcellulose) (HPC)): 0 of 6 on day 15

COc1ccc(C(=O)C(CN(C)C)CN(C)C)cc1
survivor count (dose: 50.0 mg/kg/injection, schedule: Q04DX004 (sc), vehicle: saline): 3 of 6 on day 15
survivor count (dose: 100.0 mg/kg/injection, schedule: Q04DX004 (sc), vehicle: saline): 0 of 6 on day 15

O=CC=O
survivor count [5]: 0 of 3 on day 11

COc1ccc2[nH]c3c(c2c1)CCNC3CC(C)CCC=C(C)C (stereo unspecified)
T/C (dose: 75.0 mg/kg/injection, schedule: Q04DX004 (sc), vehicle: Klucel (hydroxypropylcellulose) (HPC)): 133 % of control

S=C(Nc1ccc(Cl)c(Cl)c1)N1c2ccccc2-n2cccc2C1c1cccnc1 (stereo unspecified)
T/C (dose: 1600.0 mg/kg/injection, schedule: Q04DX004 (sc), vehicle: Klucel (hydroxypropylcellulose) (HPC)): 147 % of control

Cc1cc(NCCCCCCCNc2cc(C)nc3cc(N)ccc23)c2ccc(N)cc2n1
survivor count (dose: 100.0 mg/kg/injection, schedule: Q04DX004 (sc), vehicle: saline with Tween-80): 1 of 6 on day 15

CO[C@H]1Nc2c(ccc(C)c2O)C(=O)N2C=C(/C=C/C(N)=O)C[C@@H]12
T/C (dose: 0.25 mg/kg/injection, schedule: Q04DX004 (sc), vehicle: saline + alcohol): 130 % of control
survivor count (dose: 2.0 mg/kg/injection, schedule: Q04DX004 (sc), vehicle: saline + alcohol): 0 of 6 on day 15

Cc1noc(N)c1N
T/C (dose: 200.0 mg/kg/injection, schedule: Q04DX004 (sc), vehicle: water): 146 % of control

CC(=O)N(C)C
survivor count (dose: 5400.0 mg/kg/injection, schedule: Q04DX004 (sc), vehicle: saline): 0 of 6 on day 15
